Among the data in paper PMC11933829 are binding values, retold here.

These are yes or no findings as the source states them, for the method shown. Binding can be weak; no strength is given. For some assays here: Tags and fused reporters may be left off the sequences shown. For some assays here: Binding seen in cells or lysates may run through a third protein.

Assay [1] addresses OsMYB73 (yeast two-hybrid fusion) (rice (Oryza sativa)). As to the kind of experiment: two-hybrid; yeast two-hybrid in yeast cells; bait and prey not stated for the interaction assay.
Assay [2] has as its target OsMYB73-VN173 (rice (Oryza sativa)). In words: split reporter; BiFC: OsMYB73-VN173 and OsNF-YB1-VC155 in tobacco leaf cells; overnight in the dark at 25 °C; fluorescence microscopy.
Assay [3] has as its target OsMYB73-nLuc (rice (Oryza sativa)). As to the kind of experiment: split reporter; luciferase complementation imaging (LCI): OsMYB73-nLuc and OsNF-YB1-cLuc in Nicotiana benthamiana leaf cells.

Consider “OsYUC11 (yeast two-hybrid fusion) (from UniProt A0A0P0Y7T8)”, for which the binding result in assay [1] is “binds”.
For “OsLTPL36 (yeast two-hybrid fusion) (from UniProt Q10KV4)”, the binding entry in assay [1] is recorded as “binds”.

B1: OsNF-YB1 (yeast two-hybrid fusion) (protein, UniProt Q6Z348 1-186)
chain: MAGNKKRGGRNMDQVKKAAVRSDGVGGSATNAELPMANLVRLIKKVLPGKAKIGGAAKGLTHDCAVEFVGFVGDEASEKAKAEHRRTVAPEDYLGSFGDLGFDRYVDPMDAYIHGYREFERAGGNRRVAPPPPAAATPLTPGGPTFTDAELQFLRSVIPSRSDDEYSGSSPAIGGYGYGYGYGKNM
As for B1, the binding entry in assay [1] is “binds”.

B2: OsNF-YB1-VC155 (protein, UniProt Q6Z348 1-186)
chain: B1 chain
With B2, the binding result in assay [2] is given as “binds”.

B3: OsNF-YB1-cLuc (protein, UniProt Q6Z348 1-186)
chain: B1 chain
Regarding B3, the binding entry in assay [3] is given as “binds”.
